Data: article PMC8887470
No constants are given. Whether binding was seen depends on the method and setting. In cells and extracts the contact can be indirect. Some entries that bind do so weakly or less than the wild type. Values belong to the molecule of their own block, whether it stands above or below them.

Amino acid sequences for entries named in this document (tags omitted). A change or cut given only in a name is not applied to a line headed by its entry. Residues count along the entry.
UniProt Q60793: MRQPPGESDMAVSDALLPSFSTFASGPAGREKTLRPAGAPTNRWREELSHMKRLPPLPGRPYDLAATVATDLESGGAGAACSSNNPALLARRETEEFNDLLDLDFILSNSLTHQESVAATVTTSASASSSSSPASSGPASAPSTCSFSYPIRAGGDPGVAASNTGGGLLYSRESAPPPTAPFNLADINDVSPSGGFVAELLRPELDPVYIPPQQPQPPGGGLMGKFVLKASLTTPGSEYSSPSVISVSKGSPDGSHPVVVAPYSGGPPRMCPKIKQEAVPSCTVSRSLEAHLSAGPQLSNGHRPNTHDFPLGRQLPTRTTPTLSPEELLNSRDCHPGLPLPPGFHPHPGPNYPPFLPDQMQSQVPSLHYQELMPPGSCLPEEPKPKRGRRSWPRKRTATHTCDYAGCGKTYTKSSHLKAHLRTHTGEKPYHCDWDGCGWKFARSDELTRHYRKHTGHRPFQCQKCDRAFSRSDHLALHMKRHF
GST-Klf4 fragment 401-483 aa: residues 401-483 of Q60793
UniProt P70288: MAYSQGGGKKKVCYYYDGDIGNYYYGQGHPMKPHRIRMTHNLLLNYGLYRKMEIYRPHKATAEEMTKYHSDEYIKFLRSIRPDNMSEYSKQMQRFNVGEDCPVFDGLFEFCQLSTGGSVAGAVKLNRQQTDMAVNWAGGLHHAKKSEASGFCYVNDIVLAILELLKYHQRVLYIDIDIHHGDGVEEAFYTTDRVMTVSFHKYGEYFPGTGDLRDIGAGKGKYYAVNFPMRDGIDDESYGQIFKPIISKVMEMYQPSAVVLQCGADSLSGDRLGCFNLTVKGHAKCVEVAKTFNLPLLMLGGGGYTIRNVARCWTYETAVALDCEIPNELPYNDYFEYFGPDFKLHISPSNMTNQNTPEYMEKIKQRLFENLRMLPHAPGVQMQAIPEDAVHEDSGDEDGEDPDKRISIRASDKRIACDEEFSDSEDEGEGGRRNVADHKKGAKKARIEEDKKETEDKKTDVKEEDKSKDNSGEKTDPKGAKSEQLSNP
UniProt O09106: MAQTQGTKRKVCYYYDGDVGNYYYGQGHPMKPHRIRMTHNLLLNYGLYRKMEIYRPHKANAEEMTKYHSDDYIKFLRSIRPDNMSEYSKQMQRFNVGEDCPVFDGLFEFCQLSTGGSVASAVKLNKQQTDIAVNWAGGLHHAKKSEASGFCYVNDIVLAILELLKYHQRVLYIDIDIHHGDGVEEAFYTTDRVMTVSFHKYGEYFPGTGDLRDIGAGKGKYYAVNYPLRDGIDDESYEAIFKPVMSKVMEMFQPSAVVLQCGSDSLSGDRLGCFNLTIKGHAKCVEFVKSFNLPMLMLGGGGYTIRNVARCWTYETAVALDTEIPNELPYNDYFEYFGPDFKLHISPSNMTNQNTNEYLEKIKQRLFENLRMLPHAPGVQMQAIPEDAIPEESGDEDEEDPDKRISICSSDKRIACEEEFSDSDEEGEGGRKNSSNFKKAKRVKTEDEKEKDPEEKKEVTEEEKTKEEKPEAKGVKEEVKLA
UniProt Q9JIF0: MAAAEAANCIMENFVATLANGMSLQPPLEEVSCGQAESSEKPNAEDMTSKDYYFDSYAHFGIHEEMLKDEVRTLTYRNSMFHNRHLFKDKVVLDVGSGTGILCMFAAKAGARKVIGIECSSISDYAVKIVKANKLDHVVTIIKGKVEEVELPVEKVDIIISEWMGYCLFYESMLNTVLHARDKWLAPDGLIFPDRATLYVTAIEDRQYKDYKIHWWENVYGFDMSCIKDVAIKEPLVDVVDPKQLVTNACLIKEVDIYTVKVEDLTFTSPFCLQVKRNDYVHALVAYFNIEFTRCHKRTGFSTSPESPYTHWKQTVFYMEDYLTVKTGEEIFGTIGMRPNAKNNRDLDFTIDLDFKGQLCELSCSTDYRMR

Tests used:
[1] = target: Klf4 (endogenous, E14 ES cells) (mouse (endogenous in E14)) (UniProt Q60793); assay: co-IP; endogenous proteins; whole-cell extracts of WT and Prmt1 KO E14 cells, IP with an anti-Klf4 antibody, blots for the partners; IgG as negative control
[2] = target: FLAG-Klf4 (WT), in E14 cells (mouse) (UniProt Q60793); assay: co-IP; whole-cell extracts of E14 cells transfected with FLAG-Klf4 (WT) or its R396 mutants; IP with anti-FLAG, blots for HDAC1, HDAC2, mSin3a; IgG as negative control
Myc-Klf4 (mouse) = Myc-Klf4 (mouse) (UniProt Q60793); assay: co-IP; whole-cell extracts of HEK293T cells transfected with Myc-Klf4 and/or FLAG-Prmt1; IP with anti-Myc, blot with anti-FLAG and anti-Myc
[3] = target: GST-Klf4 fragment 401-483 aa (mouse) (UniProt Q60793); assay: pull-down; GST-KLF4 or truncated KLF4 bound to glutathione-sepharose, incubated with lysate of HEK293T cells expressing FLAG-Prmt1 in RIPA lysis buffer, 4 h, 4°C; blot with anti-FLAG; only the target purified

binding [1]: binds
binding [2]: binds
Molecule: HDAC2 (endogenous, E14 ES cells) (from UniProt P70288 1-488)

binding [1]: binds
binding [2]: binds
Molecule: HDAC1 (endogenous, E14 ES cells) (from UniProt O09106 1-482)

binding (Myc-Klf4 (mouse)): binds
binding [3]: binds
Molecule: FLAG-Prmt1 (from UniProt Q9JIF0 1-371) (enzyme)

binding [1]: binds
binding [2]: binds
B1: mSin3a (endogenous, E14 ES cells) (protein, UniProt Q60520 1-1274)
chain: MKRRLDDQESPVYAAQQRRIPGSTEAFSHQHRVLAPAPPVYEAVSETMQSATGIQYSVAPNYQVSAVPQSSGSHGPAIAAVHSSHHHPTAVQPHGGQVVQSHAHPAPPVAPVQGQQQFQRLKVEDALSYLDQVKLQFGSQPQVYNDFLDIMKEFKSQSIDTPGVISRVSQLFKGHPDLIMGFNTFLPPGYKIEVQTNDMVNVTTPGQVHQIPTHGIQPQPQPPPQHPSQPSSQSAPTPAQPAPQPTAAKVSKPSQLQAHTPASQQTPPLPPYASPRSPPVQPHTPVTISLGTAPSLQNNQPVEFNHAINYVNKIKNRFQGQPDIYKAFLEILHTYQKEQRNAKEAGGNYTPALTEQEVYAQVARLFKNQEDLLSEFGQFLPDANSSVLLSKTTAEKVDSVRNDHGGTVKKPQLNNKPQRPSQNGCQIRRHSGTGATPPVKKKPKLMSLKESSMADASKHGVGTESLFFDKVRKALRSAEAYENFLRCLVIFNQEVISRAELVQLVSPFLGKFPELFNWFKNFLGYKESVHLESFPKERATEGIAMEIDYASCKRLGSSYRALPKSYQQPKCTGRTPLCKEVLNDTWVSFPSWSEDSTFVSSKKTQYEEHIYRCEDERFELDVVLETNLATIRVLEAIQKKLSRLSAEEQAKFRLDNTLGGTSEVIHRKALQRIYADKAADIIDGLRKNPSIAVPIVLKRLKMKEEEWREAQRGFNKVWREQNEKYYLKSLDHQGINFKQNDTKVLRSKSLLNEIESIYDERQEQATEENAGVPVGPHLSLAYEDKQILEDAAALIIHHVKRQTGIQKEDKYKIKQIMHHFIPDLLFAQRGDLSDVEEEEEEEMDVDEATGAPKKHNGVGGSPPKSKLLFSNTAAQKLRGMDEVYNLFYVNNNWYIFMRLHQILCLRLLRICSQAERQIEEENREREWEREVLGIKRDKSDSPAIQLRLKEPMDVDVEDYYPAFLDMVRSLLDGNIDSSQYEDSLREMFTIHAYIAFTMDKLIQSIVRQLQHIVSDEVCVQVTDLYLAENNNGATGGQLNSQTSRSLLESAYQRKAEQLMSDENCFKLMFIQSQGQVQLTVELLDTEEENSDDPVEAERWSDYVERYMSSDTTSPELREHLAQKPVFLPRNLRRIRKCQRGREQQEKEGKEGNSKKTMENVESLDKLECRFKLNSYKMVYVIKSEDYMYRRTALLRAHQSHERVSKRLHQRFQAWVDKWTKEHVPREMAAETSKWLMGEGLEGLVPCTTTCDTETLHFVSINKYRVKYGTVFKAP
